Assay: peptide made by a vendor
Conditions: whole synthesis, high-performance liquid chromatography

Substance | final HPLC purity [%]
GGLFRF-NH2 | 99.4
QDAMLAPPDRPSEFRSPDQLRQYLKALNEYYAIVGRPRF-NH2 | 95.0
GTLFRF-NH2 | 99.1
GSTLFRF-NH2 | 99.1
GSLFRF-NH2 | 98.9
